Laboratory results: PubChem BioAssay AID1159508 (Drosophila RNAi Screening Center, 2015)
Assay: 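How silencing genes for RNA-binding proteins changes cellular ATP without other treatment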. System: Drosophila S2R+ cells. Knock-down reagent: long dsRNA against Drosophila genes. Duration: 5 days. Read-out: 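Luminescent ATP signal as a proxy for cell fitness after 5 days of RNAi, given as a z-score in each replicate and averaged over replicates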. Reading the numbers: mean ATP z-score: higher = more total ATP luminescence. Rule for the call: In these data the active calls have mean ATP z-score at about -2 or lower, or at about 2 or higher. Meaning of the calls: active = strong ATP change (up or down); inactive = no strong ATP change.
The whole screen tested 812 reagents; this is a part drawn at random. 18 of them (2.2%) count as active. 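Calls include both increased and decreased ATP; roughly one in four reagents has no third replicate value.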 Unmarked entries are inactive. Names joined by + are all predicted targets of the reagent. Not all columns of the deposit are shown. Not given: the amount of reagent.

{"gene knocked down": "Unr (Upstream of N-ras)", "dsRNA": "DRSC26920", "mean ATP z-score": -0.551}
{"gene knocked down": "Unr (Upstream of N-ras)", "dsRNA": "DRSC39356", "mean ATP z-score": 0.496}
{"gene knocked down": "Sf3a1 (Splicing factor 3a subunit 1)", "dsRNA": "DRSC15166", "mean ATP z-score": -1.61}
{"gene knocked down": "Sf3a1 (Splicing factor 3a subunit 1)", "dsRNA": "DRSC31838", "mean ATP z-score": -1.38}
{"gene knocked down": "Zn72D (Zinc-finger protein at 72D)", "dsRNA": "DRSC11318", "mean ATP z-score": -0.265}
{"gene knocked down": "Zn72D (Zinc-finger protein at 72D)", "dsRNA": "DRSC39229", "mean ATP z-score": -0.566}
{"gene knocked down": "Ski6", "dsRNA": "DRSC02491", "mean ATP z-score": -0.0918}
{"gene knocked down": "Ski6", "dsRNA": "DRSC36019", "mean ATP z-score": 0.682}
{"gene knocked down": "Syp (Syncrip)", "dsRNA": "DRSC29126", "mean ATP z-score": -0.537}
{"gene knocked down": "Syp (Syncrip)", "dsRNA": "DRSC34987", "mean ATP z-score": 0.0126}
{"gene knocked down": "Fib (Fibrillarin)", "dsRNA": "DRSC04614", "mean ATP z-score": 0.0837}
{"gene knocked down": "Fib (Fibrillarin)", "dsRNA": "DRSC35738", "mean ATP z-score": -0.437}
{"gene knocked down": "rin (rasputin)", "dsRNA": "DRSC22997", "mean ATP z-score": 1.3}
{"gene knocked down": "rin (rasputin)", "dsRNA": "DRSC33099", "mean ATP z-score": 1.66}
{"gene knocked down": "RluA-1 (RluA pseudouridine synthase 1)", "dsRNA": "DRSC02240", "mean ATP z-score": -0.343}
{"gene knocked down": "RluA-1 (RluA pseudouridine synthase 1)", "dsRNA": "DRSC03060", "mean ATP z-score": 0.312}
{"gene knocked down": "Gar1 (Gar1 ribonucleoprotein)", "dsRNA": "DRSC25331", "mean ATP z-score": 0.497}
{"gene knocked down": "Gar1 (Gar1 ribonucleoprotein)", "dsRNA": "DRSC35313", "mean ATP z-score": -0.182}

As entered above.
Under “mean ATP z-score”, Gar1 (Gar1 ribonucleoprotein) [DRSC35313] reads -0.182
Under “mean ATP z-score”, Ski6 [DRSC36019] is entered as 0.682
Result for Fib (Fibrillarin) [DRSC35738] under “mean ATP z-score”: -0.437

Further records follow:
{"gene knocked down": "mEFG1 (mitochondrial translation elongation factor G 1)", "dsRNA": "DRSC02758", "mean ATP z-score": 1.34}
{"gene knocked down": "mEFG1 (mitochondrial translation elongation factor G 1)", "dsRNA": "DRSC42722", "mean ATP z-score": -1.38}
{"gene knocked down": "CG14100", "dsRNA": "DRSC10101", "mean ATP z-score": -0.1}
{"gene knocked down": "CG14100", "dsRNA": "DRSC42689", "mean ATP z-score": -0.237}
{"gene knocked down": "CG5800", "dsRNA": "DRSC28009", "mean ATP z-score": 0.0543}
{"gene knocked down": "CG5800", "dsRNA": "DRSC35396", "mean ATP z-score": 0.566}
{"gene knocked down": "CG17768 + LSm-4", "dsRNA": "DRSC02845", "mean ATP z-score": -0.247}
{"gene knocked down": "CG17768 + LSm-4", "dsRNA": "DRSC42662", "mean ATP z-score": -0.997}
{"gene knocked down": "CG17768 + LSm-4", "dsRNA": "DRSC42714", "mean ATP z-score": -0.248}
{"gene knocked down": "Rbp6 (RNA-binding protein 6)", "dsRNA": "DRSC10072", "mean ATP z-score": -0.514}
{"gene knocked down": "Rbp6 (RNA-binding protein 6)", "dsRNA": "DRSC10073", "mean ATP z-score": -0.0701}
{"gene knocked down": "CG5641", "dsRNA": "DRSC15852", "mean ATP z-score": 0.272}
{"gene knocked down": "CG5641", "dsRNA": "DRSC37486", "mean ATP z-score": -1.19}
{"gene knocked down": "snf (sans fille)", "dsRNA": "DRSC18835", "mean ATP z-score": -0.688}
{"gene knocked down": "snf (sans fille)", "dsRNA": "DRSC27854", "mean ATP z-score": -1.16}
{"gene knocked down": "qkr58E-2 (quaking related 58E-2)", "dsRNA": "DRSC04710", "mean ATP z-score": -0.116}
{"gene knocked down": "qkr58E-2 (quaking related 58E-2)", "dsRNA": "DRSC25296", "mean ATP z-score": 0.184}
{"gene knocked down": "Upf2", "dsRNA": "DRSC27785", "mean ATP z-score": 0.505}
{"gene knocked down": "Upf2", "dsRNA": "DRSC32648", "mean ATP z-score": 0.639}
{"gene knocked down": "U4-U6-60K (U4-U6 small nuclear riboprotein factor 60K)", "dsRNA": "DRSC10624", "mean ATP z-score": -0.0653}
{"gene knocked down": "U4-U6-60K (U4-U6 small nuclear riboprotein factor 60K)", "dsRNA": "DRSC42502", "mean ATP z-score": -1.03}
{"gene knocked down": "bol (boule)", "dsRNA": "DRSC11329", "mean ATP z-score": 0.823}
{"gene knocked down": "bol (boule)", "dsRNA": "DRSC26869", "mean ATP z-score": -0.159}
